Reference: patent US20140294819A1 (NVIP, published 2014)
Residue numbers refer to the chain shown, from its start. These are yes or no findings as the source states them, for the method shown. Binding can be weak; no strength is given.

B1: chimeric mouse-canine RA2, HCB isotype (antibody)
heavy: QVQLKQSGPGLVPPSQSLSITCTVSGFSLTNYGVHWVRQSPGKGLEWLGVIWSGGTTDYNAAFISRLSISKDNSKSQVFFKMNSLQADDTAIYYCARGPRKFYYYGMDYWGQGTSVTVSSASTTAPSVFPLAPSCGSTSGSTVALACLVSGYFPEPVTVSWNSGSLTSGVHTFPSVLQSSGLYSLSSMVTVPSSRWPSETFTCNVAHPASKTKVDKPVPKRENGRVPRPPDCPKCPAPEMLGGPSVFIFPPKPKDTLLIARTPEVTCVVVDLDPEDPEVQISWFVDGKQMQTAKTQPREEQFNGTYRVVSVLPIGHQDWLKGKQFTCKVNNKALPSPIERTISKARGQAHQPSVYVLPPSREELSKNTVSLTCLIKDFFPPDIDVEWQSNGQQEPESKYRTTPPQLDEDGSYFLYSKLSVDKSRWQRGDTFICAVMHEALHNHYTQESLSHSPGK
light: DVLMTQTPLSLPVSLGDQASISCRSSQSIVHSNGNTYLEWYLQKPGQSPKLLIYKVSNRFSGVPDRFSGSGSGTDFTLKISRVEAGDLGVYYCFQGLHVPLTFGAGTRLELKRNDAQPAVYLFQPSPDQLHTGSASVVCLLNSFYPKDINVKWKVDGVIQDTGIQESVTEQDKDSTYSLSSTLTMSSTEYLSHELYSCEITHKSLPSTLIKSFQRSECQRVD
notes: also called chiRA2-B; chimeric RA2
B2: chimeric mouse-canine RF2, HCB isotype (antibody)
heavy: B1 heavy with V24I, N31S, K43W, T56S, T57I, F80I, Y105F
light: B1 light with L3V, S28N, L38V, G86E, L97S, R108K
notes: also called chiRF2-B; chimeric RF2
B3: caninised RA2, HCB isotype (antibody)
heavy: EVQLVQSGGGLVKPTESLTISCVVSGFSLTNYGVHWVRQSPGKGLEWLGVIWSGGTTDYNAAFISRLSISKDNSKSTVFLRMNSLRADDTAIYYCARGPRKFYYYGMDYWGQGTSVTVSSASTTAPSVFPLAPSCGSTSGSTVALACLVSGYFPEPVTVSWNSGSLTSGVHTFPSVLQSSGLYSLSSMVTVPSSRWPSETFTCNVAHPASKTKVDKPVPKRENGRVPRPPDCPKCPAPEMLGGPSVFIFPPKPKDTLLIARTPEVTCVVVDLDPEDPEVQISWFVDGKQMQTAKTQPREEQFNGTYRVVSVLPIGHQDWLKGKQFTCKVNNKALPSPIERTISKARGQAHQPSVYVLPPSREELSKNTVSLTCLIKDFFPPDIDVEWQSNGQQEPESKYRTTPPQLDEDGSYFLYSKLSVDKSRWQRGDTFICAVMHEALHNHYTQESLSHSPGK
light: B1 light with V2I, L3V, P12S, L15Q, G16E, D17E, Q18E, L88A, R108K
notes: also called caRA2-B
B4: caninised RF2, HCB isotype (antibody)
heavy: B3 heavy with V24I, N31S, T56S, T57I, L80I, Y105F
light: DIVMTQTPLSLSVSQEEEASISCRSSQNIVHSNGNTYVEWYLQKPGQSPKLLIYKVSNRFSGVPDRFSGSGSGTDFTLKISRVEAEDAGVYYCFQGSHVPLTFGAGTKLELKRNDAQPAVYLFQPSPDQLHTGSASVVCLLNSFYPKDINVKWKVDGVIQDTGIQESVTEQDKDSTYSLSSTLTMSSTEYLSHELYSCEITHKSLPSTLIKSFQRSECQRVD
notes: also called caRF2-B
B5: caninised RA2, HCC isotype (antibody)
heavy: EVQLVQSGGGLVKPTESLTISCVVSGFSLTNYGVHWVRQSPGKGLEWLGVIWSGGTTDYNAAFISRLSISKDNSKSTVFLRMNSLRADDTAIYYCARGPRKFYYYGMDYWGQGTSVTVSSASTTAPSVFPLAPSCGSQSGSTVALACLVSGYIPEPVTVSWNSVSLTSGVHTFPSVLQSSGLYSLSSMVTVPSSRWPSETFTCNVAHPATNTKVDKPVAKECECKCNCNNCPCPGCGLLGGPSVFIFPPKPKDILVTARTPTVTCVVVDLDPENPEVQISWFVDSKQVQTANTQPREEQSNGTYRVVSVLPIGHQDWLSGKQFKCKVNNKALPSPIEEIISKTPGQAHQPNVYVLPPSRDEMSKNTVTLTCLVKDFFPPEIDVEWQSNGQQEPESKYRMTPPQLDEDGSYFLYSKLSVDKSRWQRGDTFICAVMHEALHNHYTQISLSHSPGK
light: B4 light with N28S, V38L, E86G, S97L
notes: See note of m19; also called caRA2-C
B6: caninised RF2, HCC isotype (antibody)
heavy: B5 heavy with V24I, N31S, T56S, T57I, L80I, Y105F
light: B4 light
notes: also called caRF2-C

target: complement C1q; assay: C1q ELISA, antibody captured on caCD20 peptide

binding, binds:
B1
B2
B3
B4
B5
B6
